From the supplement of paper PMC11546906
Where a name gives a salt, the structure may show the parent alone. Some of the results follow. Single values are uncertain here, since repeats match poorly.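 Screen of FDA-approved drugs, each combined with colistin at one-eighth of its MIC, against a multidrug-resistant mcr-1-positive clinical E. coli isolate; growth read as OD600 after 24 h. Bacteria without drug were the growth control and plain broth the blank. A combination counted as active when OD600 fell below 0.2.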

Tested on: Escherichia coli 42 (mcr-1-positive clinical isolate)
Test: OD600 after 24 h growth with compound plus colistin (absorbance units (OD600)); higher = more bacterial growth (less inhibition)
Conditions: first compound 25 µM; colistin concentration 0.5 ug/mL; incubation time 24 h; 37 °C

OD600, inactive:
CC(=O)NC[C@H]1CN(c2ccc(N3CCOCC3)c(F)c2)C(=O)O1 [Linezolid] + CCC(C)CCCC(=O)N[C@@H](CCN)C(=O)N[C@H](C(=O)N[C@@H](CCN)C(=O)N[C@H]1CCNC(=O)[C@H]([C@@H](C)O)NC(=O)[C@H](CCN)NC(=O)[C@H](CCN)NC(=O)[C@H](CC(C)C)NC(=O)[C@@H](CC(C)C)NC(=O)[C@H](CCN)NC1=O)[C@@H](C)O [colistin] 1.07
CC(C)(O)c1ccccc1CC[C@@H](SCC1(CC(=O)O)CC1)c1cccc(/C=C/c2ccc3ccc(Cl)cc3n2)c1 [Montelukast] + CCC(C)CCCC(=O)N[C@@H](CCN)C(=O)N[C@H](C(=O)N[C@@H](CCN)C(=O)N[C@H]1CCNC(=O)[C@H]([C@@H](C)O)NC(=O)[C@H](CCN)NC(=O)[C@H](CCN)NC(=O)[C@H](CC(C)C)NC(=O)[C@@H](CC(C)C)NC(=O)[C@H](CCN)NC1=O)[C@@H](C)O [colistin] 1.12
CN(C)CCC(c1ccc(Br)cc1)c1ccccn1 (centres undefined) [Brompheniramine maleate] + CCC(C)CCCC(=O)N[C@@H](CCN)C(=O)N[C@H](C(=O)N[C@@H](CCN)C(=O)N[C@H]1CCNC(=O)[C@H]([C@@H](C)O)NC(=O)[C@H](CCN)NC(=O)[C@H](CCN)NC(=O)[C@H](CC(C)C)NC(=O)[C@@H](CC(C)C)NC(=O)[C@H](CCN)NC1=O)[C@@H](C)O [colistin] 0.99
CN1CCN(C2=Nc3cc(Cl)ccc3Nc3ccccc32)CC1 [Clozapine] + CCC(C)CCCC(=O)N[C@@H](CCN)C(=O)N[C@H](C(=O)N[C@@H](CCN)C(=O)N[C@H]1CCNC(=O)[C@H]([C@@H](C)O)NC(=O)[C@H](CCN)NC(=O)[C@H](CCN)NC(=O)[C@H](CC(C)C)NC(=O)[C@@H](CC(C)C)NC(=O)[C@H](CCN)NC1=O)[C@@H](C)O [colistin] 1.07
O=S(=O)(O)CCS [Sodium 2-mercaptoethanesulfonate] + CCC(C)CCCC(=O)N[C@@H](CCN)C(=O)N[C@H](C(=O)N[C@@H](CCN)C(=O)N[C@H]1CCNC(=O)[C@H]([C@@H](C)O)NC(=O)[C@H](CCN)NC(=O)[C@H](CCN)NC(=O)[C@H](CC(C)C)NC(=O)[C@@H](CC(C)C)NC(=O)[C@H](CCN)NC1=O)[C@@H](C)O [colistin] 0.816
CCCN1CCCC[C@H]1C(=O)Nc1c(C)cccc1C [Ropivacaine hydrochloride monohydrate] + CCC(C)CCCC(=O)N[C@@H](CCN)C(=O)N[C@H](C(=O)N[C@@H](CCN)C(=O)N[C@H]1CCNC(=O)[C@H]([C@@H](C)O)NC(=O)[C@H](CCN)NC(=O)[C@H](CCN)NC(=O)[C@H](CC(C)C)NC(=O)[C@@H](CC(C)C)NC(=O)[C@H](CCN)NC1=O)[C@@H](C)O [colistin] 1.03
Nc1nc(=O)[nH]cc1F [Flucytosine] + CCC(C)CCCC(=O)N[C@@H](CCN)C(=O)N[C@H](C(=O)N[C@@H](CCN)C(=O)N[C@H]1CCNC(=O)[C@H]([C@@H](C)O)NC(=O)[C@H](CCN)NC(=O)[C@H](CCN)NC(=O)[C@H](CC(C)C)NC(=O)[C@@H](CC(C)C)NC(=O)[C@H](CCN)NC1=O)[C@@H](C)O [colistin] 0.827
CCN1CCCC1CNC(=O)c1cc(S(=O)(=O)CC)c(N)cc1OC (centres undefined) [Amisulpride] + CCC(C)CCCC(=O)N[C@@H](CCN)C(=O)N[C@H](C(=O)N[C@@H](CCN)C(=O)N[C@H]1CCNC(=O)[C@H]([C@@H](C)O)NC(=O)[C@H](CCN)NC(=O)[C@H](CCN)NC(=O)[C@H](CC(C)C)NC(=O)[C@@H](CC(C)C)NC(=O)[C@H](CCN)NC1=O)[C@@H](C)O [colistin] 1
CCN1CCN(C(=O)N[C@@H](C(=O)N[C@@H]2C(=O)N3[C@@H]2SC(C)(C)[C@@H]3C(=O)O)c2ccccc2)C(=O)C1=O [Piperacillin sodium] + CCC(C)CCCC(=O)N[C@@H](CCN)C(=O)N[C@H](C(=O)N[C@@H](CCN)C(=O)N[C@H]1CCNC(=O)[C@H]([C@@H](C)O)NC(=O)[C@H](CCN)NC(=O)[C@H](CCN)NC(=O)[C@H](CC(C)C)NC(=O)[C@@H](CC(C)C)NC(=O)[C@H](CCN)NC1=O)[C@@H](C)O [colistin] 1.04
C[C@H]1O[C@@H](O[C@H]2[C@@H](O)C[C@H](O[C@H]3[C@@H](O)C[C@H](O[C@H]4CC[C@@]5(C)[C@H](CC[C@@H]6[C@@H]5CC[C@]5(C)[C@@H](C7=CC(=O)OC7)CC[C@]65O)C4)O[C@@H]3C)O[C@@H]2C)C[C@H](O)[C@@H]1O [Digitoxin] + CCC(C)CCCC(=O)N[C@@H](CCN)C(=O)N[C@H](C(=O)N[C@@H](CCN)C(=O)N[C@H]1CCNC(=O)[C@H]([C@@H](C)O)NC(=O)[C@H](CCN)NC(=O)[C@H](CCN)NC(=O)[C@H](CC(C)C)NC(=O)[C@@H](CC(C)C)NC(=O)[C@H](CCN)NC1=O)[C@@H](C)O [colistin] 1.02
Nc1ncn([C@@H]2O[C@H](CO)[C@@H](O)[C@H]2O)c(=O)n1 [5-Azacytidine] + CCC(C)CCCC(=O)N[C@@H](CCN)C(=O)N[C@H](C(=O)N[C@@H](CCN)C(=O)N[C@H]1CCNC(=O)[C@H]([C@@H](C)O)NC(=O)[C@H](CCN)NC(=O)[C@H](CCN)NC(=O)[C@H](CC(C)C)NC(=O)[C@@H](CC(C)C)NC(=O)[C@H](CCN)NC1=O)[C@@H](C)O [colistin] 0.478
O=C(O)c1cc(/N=N/c2ccc(O)c(C(=O)O)c2)ccc1O [Olsalazine disodium] + CCC(C)CCCC(=O)N[C@@H](CCN)C(=O)N[C@H](C(=O)N[C@@H](CCN)C(=O)N[C@H]1CCNC(=O)[C@H]([C@@H](C)O)NC(=O)[C@H](CCN)NC(=O)[C@H](CCN)NC(=O)[C@H](CC(C)C)NC(=O)[C@@H](CC(C)C)NC(=O)[C@H](CCN)NC1=O)[C@@H](C)O [colistin] 1.07
O=C1O[C@H](CO)[C@@H](O)[C@H](O)[C@H]1O [D-(+)-Glucono-1,5-lactone] + CCC(C)CCCC(=O)N[C@@H](CCN)C(=O)N[C@H](C(=O)N[C@@H](CCN)C(=O)N[C@H]1CCNC(=O)[C@H]([C@@H](C)O)NC(=O)[C@H](CCN)NC(=O)[C@H](CCN)NC(=O)[C@H](CC(C)C)NC(=O)[C@@H](CC(C)C)NC(=O)[C@H](CCN)NC1=O)[C@@H](C)O [colistin] 1.15
Nc1nc(Cl)nc2c1ncn2[C@H]1C[C@H](O)[C@@H](CO)O1 [Cladribine] + CCC(C)CCCC(=O)N[C@@H](CCN)C(=O)N[C@H](C(=O)N[C@@H](CCN)C(=O)N[C@H]1CCNC(=O)[C@H]([C@@H](C)O)NC(=O)[C@H](CCN)NC(=O)[C@H](CCN)NC(=O)[C@H](CC(C)C)NC(=O)[C@@H](CC(C)C)NC(=O)[C@H](CCN)NC1=O)[C@@H](C)O [colistin] 0.949
Cn1c(=O)c2[nH]cnc2n(C)c1=O [Aminophylline] + CCC(C)CCCC(=O)N[C@@H](CCN)C(=O)N[C@H](C(=O)N[C@@H](CCN)C(=O)N[C@H]1CCNC(=O)[C@H]([C@@H](C)O)NC(=O)[C@H](CCN)NC(=O)[C@H](CCN)NC(=O)[C@H](CC(C)C)NC(=O)[C@@H](CC(C)C)NC(=O)[C@H](CCN)NC1=O)[C@@H](C)O [colistin] 1
CN(C)CC[C@@H](c1ccc(Cl)cc1)c1ccccn1 [Dexchlorpheniramine Maleate] + CCC(C)CCCC(=O)N[C@@H](CCN)C(=O)N[C@H](C(=O)N[C@@H](CCN)C(=O)N[C@H]1CCNC(=O)[C@H]([C@@H](C)O)NC(=O)[C@H](CCN)NC(=O)[C@H](CCN)NC(=O)[C@H](CC(C)C)NC(=O)[C@@H](CC(C)C)NC(=O)[C@H](CCN)NC1=O)[C@@H](C)O [colistin] 0.984
Cc1ccc(/C(=C\CN2CCCC2)c2ccccn2)cc1 [Triprolidine hydrochloride monohydrate] + CCC(C)CCCC(=O)N[C@@H](CCN)C(=O)N[C@H](C(=O)N[C@@H](CCN)C(=O)N[C@H]1CCNC(=O)[C@H]([C@@H](C)O)NC(=O)[C@H](CCN)NC(=O)[C@H](CCN)NC(=O)[C@H](CC(C)C)NC(=O)[C@@H](CC(C)C)NC(=O)[C@H](CCN)NC1=O)[C@@H](C)O [colistin] 1.15
CC(C)(O/N=C(\C(=O)N[C@@H]1C(=O)N2C(C(=O)[O-])=C(C[n+]3ccccc3)CS[C@H]12)c1csc(N)n1)C(=O)O [Ceftazidime] + CCC(C)CCCC(=O)N[C@@H](CCN)C(=O)N[C@H](C(=O)N[C@@H](CCN)C(=O)N[C@H]1CCNC(=O)[C@H]([C@@H](C)O)NC(=O)[C@H](CCN)NC(=O)[C@H](CCN)NC(=O)[C@H](CC(C)C)NC(=O)[C@@H](CC(C)C)NC(=O)[C@H](CCN)NC1=O)[C@@H](C)O [colistin] 0.86
CC12CC3CC(C)(C1)CC(N)(C3)C2 [Memantine hydrochloride] + CCC(C)CCCC(=O)N[C@@H](CCN)C(=O)N[C@H](C(=O)N[C@@H](CCN)C(=O)N[C@H]1CCNC(=O)[C@H]([C@@H](C)O)NC(=O)[C@H](CCN)NC(=O)[C@H](CCN)NC(=O)[C@H](CC(C)C)NC(=O)[C@@H](CC(C)C)NC(=O)[C@H](CCN)NC1=O)[C@@H](C)O [colistin] 0.939

Reprinted at random: 2 entries already listed.
OD600, inactive:
Nc1nc(Cl)nc2c1ncn2[C@H]1C[C@H](O)[C@@H](CO)O1 [Cladribine] + CCC(C)CCCC(=O)N[C@@H](CCN)C(=O)N[C@H](C(=O)N[C@@H](CCN)C(=O)N[C@H]1CCNC(=O)[C@H]([C@@H](C)O)NC(=O)[C@H](CCN)NC(=O)[C@H](CCN)NC(=O)[C@H](CC(C)C)NC(=O)[C@@H](CC(C)C)NC(=O)[C@H](CCN)NC1=O)[C@@H](C)O [colistin] 0.949
CC12CC3CC(C)(C1)CC(N)(C3)C2 [Memantine hydrochloride] + CCC(C)CCCC(=O)N[C@@H](CCN)C(=O)N[C@H](C(=O)N[C@@H](CCN)C(=O)N[C@H]1CCNC(=O)[C@H]([C@@H](C)O)NC(=O)[C@H](CCN)NC(=O)[C@H](CCN)NC(=O)[C@H](CC(C)C)NC(=O)[C@@H](CC(C)C)NC(=O)[C@H](CCN)NC1=O)[C@@H](C)O [colistin] 0.939
